Laboratory results from PubChem BioAssay (NCATS).
The shares of active, inactive and inconclusive entries below differ from those in the screen. Potencies of inconclusive entries are doubtful fits and often do not repeat. Activity calls are given as the source filed them. Calls follow the shape of the dose curve; as a rule, active = well fitted cell-killing curve with a large enough effect; inconclusive = small, poorly fitted or top-dose-only effect, or effect the other way; inactive = no such curve, though single readings can be large or run the other way.

How the values were obtained:
[1] = Quantitative High-Throughput drug screen in 47 multiple myeloma cell lines against the NCATS MIPE library collection: RPMI8226_ATCC cell viability assay (AID 1919871); conditions: RPMI8226 myeloma viability, CellTiter-Glo ATP luminescence, 48 h; series mostly up to 45.8 µM; also: nearly all actives have a fitted effect of over 30% in size
Method in brief: (§1)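 500 cells/well; MIPE 4.0 drugs pin-transferred; 48 h, 37C, 5% CO2. CellTiter-Glo, 5 min RT, luminescence. Controls: DMSO 100%, media 0%.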

[2] = Quantitative High-Throughput drug screen in 47 multiple myeloma cell lines against the NCATS MIPE library collection: OPM2_DSMZ cell viability assay (AID 1919872); conditions: OPM2 myeloma viability, CellTiter-Glo ATP luminescence, 48 h; series mostly up to 45.8 µM; also: nearly all actives have a fitted effect of over 30% in size
Method in brief: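 qHTS of the MIPE 4.0 collection: 500 myeloma cells/well, 48 h drug exposure at 37C in 5% CO2, then CellTiter-Glo for 5 min at room temperature before luminescence reading.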

[3] = Quantitative High-Throughput drug screen in 47 multiple myeloma cell lines against the NCATS MIPE library collection: KMS11_JCRBsus cell viability assay (AID 1919873); also: nearly all actives have a fitted effect of over 50% in size
Method in brief: as §1

[4] = Quantitative High-Throughput drug screen in 47 multiple myeloma cell lines against the NCATS MIPE library collection: KMS28BM_JCRB cell viability assay (AID 1919874); also: nearly all actives have a fitted effect of over 35% in size
Method in brief: as §1
Potency is read from the fitted curve at half-maximal effect.

Nc1ncn([C@@H]2O[C@H](CO)[C@@H](O)[C@@H]2O)c(=O)n1
Potency [1]: inconclusive: 14.8 µM [cytotoxic, partial curve] | Potency [2]: active: 14.8 µM | Potency [3]: active: 14.8 µM

CCOC(=O)[C@H]1O[C@H]1C(=O)N[C@@H](CC(C)C)C(=O)NCCC(C)C
Potency [1]: inconclusive: 1.48 µM [cytotoxic, full curve, poor fit]

CC(C)(O)CC(=O)NCCn1ccc2ncnc(Nc3ccc(Oc4cccc(C(F)(F)F)c4)c(Cl)c3)c21
Potency [1]: inconclusive: 37.2 µM [cytotoxic, single point] | Potency [2]: inconclusive: 37.2 µM [cytotoxic, single point] | Potency [3]: inconclusive: 29.6 µM [cytotoxic, single point]

COc1ccc(S(=O)(=O)Nc2cc(-c3c(O)ccc4ccccc34)c(O)c3ccccc23)cc1
Potency [1]: active: 23.5 µM | Potency [2]: active: 11.8 µM

Nc1[nH]nc2nnc(-c3c(-c4ccccc4)nn4ccccc34)cc12
Potency [1]: inactive

NCCCC(O)(P(=O)(O)O)P(=O)(O)O
Potency [1]: inactive | Potency [2]: inactive | Potency [3]: inconclusive: 33.2 µM [cytotoxic, single point]

Cc1nnc(NS(=O)(=O)c2ccc(N)cc2)s1
Potency [1]: inconclusive: 0.0026 µM [cytotoxic, full curve, poor fit] | Potency [2]: inconclusive: 18.7 µM [cytotoxic, partial curve]

CC(=CC(=O)Nc1ccccc1C(=O)O)c1ccc2ccccc2c1
Potency [1]: inconclusive: 11.8 µM [cytotoxic, partial curve, poor fit] | Potency [2]: inactive | Potency [3]: inactive

NC(=O)c1cccc(-c2cccc(OC(=O)NC3CCCCC3)c2)c1
Potency [1]: inactive | Potency [2]: inactive

CC(C)c1cnn2c(NCc3ccccc3)cc(NCCCCCCN)nc12
Potency [1]: inconclusive: 20.9 µM [cytotoxic, partial curve] | Potency [2]: inconclusive: 20.9 µM [cytotoxic, partial curve]

COc1ccccc1[C@H](c1cccc2ccccc12)[C@@](C)(C#N)C(=O)N1CCC(c2cccc(C(F)(F)F)c2)CC1
Potency [1]: inconclusive: 7.43 µM [cytotoxic, full curve] | Potency [2]: active: 8.33 µM

CC(C)(Sc1cc(C(C)(C)C)c(O)c(C(C)(C)C)c1)Sc1cc(C(C)(C)C)c(O)c(C(C)(C)C)c1
Potency [1]: inconclusive: 0.0033 µM [rising, full curve, poor fit] | Potency [2]: inconclusive: 0.0026 µM [rising, full curve, poor fit]

Nc1nc(N)c2nc(CNc3ccc(C(=O)NC(CCC(=O)O)C(=O)O)cc3)cnc2n1 (configuration not stated)
Potency [1]: inconclusive: 0.0833 µM [cytotoxic, full curve, poor fit] | Potency [2]: inconclusive: 0.0296 µM [cytotoxic, full curve, poor fit]

CO[C@@]12[C@H](COC(N)=O)C3=C(C(=O)C(C)=C(N)C3=O)N1C[C@@H]1N[C@@H]12
Potency [1]: inconclusive: 29.6 µM [cytotoxic, single point]

CCOc1cc(C=C2C(=O)N(c3ccccc3)N=C2C)cc(Cl)c1OCC(=O)OC
Potency [1]: inactive

CCn1c(-c2nonc2N)nc2cnc(Oc3cccc(NC(=O)c4ccc(OCCN5CCOCC5)cc4)c3)cc21
Potency [1]: inconclusive: 26.4 µM [cytotoxic, single point] | Potency [2]: inconclusive: 20.9 µM [cytotoxic, partial curve]

C1CCC(C(CC2CCCCN2)C2CCCCC2)CC1 (configuration not stated)
Potency [1]: active: 11.8 µM

Nc1ncnc2c1ncn2[C@@H]1O[C@H](CO)[C@@H](O)[C@@H]1O
Potency [1]: inactive | Potency [2]: inconclusive: 37.2 µM [cytotoxic, single point]

OCCn1cc(-c2cnc3nnn(Cc4ccc5ncccc5c4)c3n2)cn1
Potency [1]: inactive | Potency [2]: inconclusive: 0.0053 µM [cytotoxic, full curve, poor fit]

CN1CCc2c(n(Cc3ccc(C(=O)NO)cc3)c3ccccc23)C1
Potency [1]: inconclusive: 23.5 µM [cytotoxic, partial curve] | Potency [2]: inconclusive: 18.7 µM [cytotoxic, partial curve, poor fit]

CC1(C)[C@H]2CC[C@]3(C)[C@@H](C(=O)C=C4[C@@H]5C[C@@](C)(C(=O)O)CC[C@]5(C)CC[C@]43C)[C@@]2(C)CC[C@@H]1O
Potency [1]: inactive | Potency [2]: inactive

C[C@@H]1C(=O)O[C@H]2CC34[C@H]5C[C@@H](C(C)(C)C)C36[C@H](OC(=O)[C@@H]6O)O[C@@]4(C(=O)O5)[C@]21O (some centres not stated)
Potency [1]: inactive

CN(C)c1ccc(C(=C2C=CC(=[N+](C)C)C=C2)c2ccc(N(C)C)cc2)cc1
Potency [1]: active: 0.0935 µM

CNc1nc(-c2ccc3c(N)n[nH]c3c2)cc(N2C[C@@H](C(=O)NC3CCCCC3)CC[C@@H]2C)n1
Potency [1]: inconclusive: 14.8 µM [cytotoxic, partial curve]

CCN1CCN(CC(=O)Nc2ccc(-c3cccc4c(=O)cc(N5CCOCC5)oc34)c3sc4ccccc4c23)CC1
Potency [1]: active: 1.87 µM | Potency [2]: active: 3.72 µM

CN1CCCC(n2nc(Cc3ccc(Cl)cc3)c3ccccc3c2=O)CC1 (configuration not stated)
Potency [1]: inconclusive: 29.6 µM [cytotoxic, single point] | Potency [2]: inconclusive: 26.4 µM [cytotoxic, single point]

OCc1ccccc1O[C@@H]1O[C@H](CO)[C@H](O)[C@H](O)[C@H]1O
Potency [1]: inactive

C[C@@H](N)C1CCC(C(=O)Nc2ccncc2)CC1 (some centres not stated)
Potency [1]: inactive

CC1=C(CC(=O)O)c2cc(F)ccc2C1=Cc1ccc(S(C)=O)cc1 (configuration not stated)
Potency [1]: inactive | Potency [2]: inactive

Nc1ccc(C(=O)Nc2cccc(-c3nc(N4CCOCC4)c4oc5ncccc5c4n3)c2)cn1
Potency [1]: inconclusive: 14.8 µM [cytotoxic, partial curve]

Nc1nc2c(c(=O)[nH]1)N(C=O)[C@H](CNc1ccc(C(=O)N[C@@H](CCC(=O)O)C(=O)O)cc1)CN2
Potency [1]: inactive

Oc1c(Cl)cc(Cl)c2cccnc12
Potency [1]: active: 18.7 µM | Potency [2]: active: 26.4 µM

O=C1NC(=O)C(=Cc2ccc3nccc(-c4ccncc4)c3c2)S1
Potency [1]: active: 0.235 µM | Potency [2]: inconclusive: 0.332 µM [cytotoxic, full curve, poor fit]

CCCCCCNC(=O)n1cc(F)c(=O)[nH]c1=O
Potency [1]: inconclusive: 1.18 µM [cytotoxic, full curve, poor fit] | Potency [2]: inactive | Potency [3]: inconclusive: 23.5 µM [cytotoxic, partial curve, poor fit]

CCN1CCN(Cc2ccc(-c3cc4c(N[C@H](C)c5ccccc5)ncnc4[nH]3)cc2)CC1
Potency [1]: inconclusive: 18.7 µM [cytotoxic, partial curve, poor fit] | Potency [2]: inconclusive: 5.26 µM [cytotoxic, partial curve, poor fit]

CC(=O)N1CCN(c2ccc(OCc3nn(C)c(C)c3-c3cccc4c(CCCOc5cccc6ccccc56)c(C(=O)O)n(Cc5cccnc5)c34)cc2)CC1
Potency [1]: active: 23.5 µM | Potency [2]: active: 23.5 µM

C=C1C[C@@]2(O)O[C@@]3(C[C@H]2C(C)C)[C@H](C)CC[C@H]13
Potency [1]: inactive

COc1cc2c(Oc3ccc4[nH]c(C)cc4c3F)ncnc2cc1OCCCN1CCCC1
Potency [1]: inconclusive: 33.2 µM [cytotoxic, single point] | Potency [2]: inconclusive: 1.87 µM [cytotoxic, full curve] | Potency [3]: active: 2.96 µM

CC(C)n1cnc2c(NCCc3ccc(O)cc3)nc(-c3csc4ccccc34)nc21
Potency [1]: inconclusive: 29.6 µM [cytotoxic, single point] | Potency [2]: inconclusive: 29.6 µM [cytotoxic, single point] | Potency [4]: inconclusive: 26.4 µM [cytotoxic, single point]

Clc1cccc(-c2nnnn2Cc2cccnc2)c1Cl
Potency [1]: inactive | Potency [2]: inactive | Potency [3]: inconclusive: 0.0059 µM [rising, full curve]

Clc1ccc(Nc2nnc(Cc3ccncc3)c3ccccc23)cc1
Potency [1]: inconclusive: 13.2 µM [cytotoxic, partial curve, poor fit] | Potency [2]: inactive | Potency [3]: inconclusive: 18.7 µM [cytotoxic, partial curve, poor fit] | Potency [4]: inconclusive: 1.48 µM [cytotoxic, full curve, poor fit]

Oc1cccc(-c2nc(N3CCOCC3)c3oc4ncccc4c3n2)c1
Potency [1]: inconclusive: 0.0382 µM [cytotoxic, full curve] | Potency [2]: active: 0.136 µM | Potency [3]: inconclusive: 0.0152 µM [cytotoxic, full curve] | Potency [4]: inconclusive: 0.027 µM [cytotoxic, full curve]

CC(C(=O)O)c1ccc2c(c1)CC(=O)c1ccccc1S2 (configuration not stated)
Potency [1]: inactive | Potency [2]: inactive | Potency [3]: inconclusive: 20.9 µM [cytotoxic, single point] | Potency [4]: inconclusive: 7.43 µM [cytotoxic, partial curve, poor fit]

COc1cc2ncnc(Nc3cccc(Cl)c3)c2cc1OC
Potency [1]: inconclusive: 4.18 µM [cytotoxic, partial curve, poor fit] | Potency [2]: inactive | Potency [4]: inconclusive: 16.6 µM [cytotoxic, partial curve]

CC(C=CC=C(C)C=CC1=C(C)CCCC1(C)C)=CC=CC=C(C)C=CC=C(C)C=CC1=C(C)CCCC1(C)C
Potency [1]: inconclusive: 20.9 µM [cytotoxic, partial curve, poor fit] | Potency [2]: inactive | Potency [3]: inconclusive: 18.7 µM [cytotoxic, partial curve] | Potency [4]: inconclusive: 16.6 µM [cytotoxic, partial curve]

CCOC(=O)[C@H](CCc1ccccc1)N[C@@H](C)C(=O)N1CCCC1C(=O)O (some centres not stated)
Potency [1]: inactive | Potency [2]: inconclusive: 0.0935 µM [rising, full curve, poor fit] | Potency [4]: inactive
